PubChem BioAssay AID540276 (National Center for Advancing Translational Sciences (NCATS), 2011)
Where “and” joins values, the source holds several entries; their conditions need not be identical. Identical values can stand only once. The campaign covered roughly 300,000 compounds. About 5,400 (1.8%) were called active. The shares of active, inactive and inconclusive entries below differ from those in the screen. The call rests on the fitted dose curve; tested in HEK293 cells. Potencies of inconclusive entries are doubtful fits and often do not repeat.

Assay: qHTS for inhibitors of binding or entry into cells for Marburg Virus
Settings: Marburg virus pseudotyped entry inhibition, cell reporter; activity change, negative = inhibition: at 37.8 µM (top of the series) unless noted
On the % scale 0 is the no-effect control and ±100 the full control effect; potency means the concentration at half of the fitted maximal effect.

Compound | activity change, negative = inhibition | Potency
CC(/C=N/n1c(-c2cccnc2)n[nH]c1=S)=C\c1ccccc1 | inactive: -7.08% | –
O=c1c2ccccc2nc(SCCN2CCCCC2)n1CCc1ccccc1 | – | inconclusive: 12.6 µM [inhibitor, partial curve, poor fit]
Clc1cccc(C2Nc3cccc4cccc(c34)N2)c1Cl | – | inconclusive: 1.58 µM [inhibitor, partial curve, poor fit]
c1ccc(-c2ccccc2-c2nc(-c3ccncc3)no2)cc1 | – | inconclusive: 35.5 µM [inhibitor, single point]
O=C(NCc1cccs1)C1CCC(CNS(=O)(=O)c2ccc(Br)s2)CC1 (stereo not drawn) | – | inactive
CSc1ncccc1C(=O)NCC(c1ccco1)N1CCCCC1 (stereo not drawn) | – | inconclusive: 3.16 µM [inhibitor, partial curve, poor fit]
Cc1ccc(-c2nc3n(n2)C(c2ccccc2C)C=C(c2ccc(Cl)cc2)N3)cc1 (stereo not drawn) | – | inconclusive: 7.08 µM [inhibitor, partial curve, poor fit]
COCc1nnc(NC(=O)c2ccccc2Oc2ccccc2)s1 | inactive: 8.54% [at 46.1 µM] | –
Cn1c(CO)cnc1SCC(=O)c1ccc(Br)cc1 | – | inconclusive: 20 µM [inhibitor, single point]
CCOC(=O)c1csc(-n2nc(C)cc2C(F)(F)F)n1 | inactive: 0.0722% [at 46.1 µM] | –
Cn1ncc2c(Nc3ccc(O)cc3)nc(Cl)nc21 | – | inconclusive: 35.5 µM [inhibitor, single point]
Cc1onc(-c2ccccc2)c1C(=O)Nc1cccc(OC(C)C)c1 | – | inconclusive: 14.1 µM [inhibitor, partial curve]
CCN(CC)C(=O)c1ccc(Oc2ccc([N+](=O)[O-])cc2Cl)cc1 | – | inconclusive: 12.6 µM [inhibitor, partial curve, poor fit]
COc1cccc(/C=C/c2ccc3cccc(O)c3n2)c1 | – | inconclusive: 1.12 µM [activator, full curve, poor fit]
CCc1ccc(NC(=O)CC2C(=O)NCCN2C(=S)Nc2ccccc2)cc1 (stereo not drawn) | – | inconclusive: 0.794 µM [inhibitor, partial curve, poor fit]
CCOc1ccc(C2c3c(-c4ccc(C)cc4)n[nH]c3C(=O)N2c2ccc(Cl)cc2)cc1 (stereo not drawn) | – | inconclusive: 35.5 µM [inhibitor, single point]
O=C1CCC(=O)N1c1cccc(OS(=O)(=O)c2ccccc2)c1 | – | inconclusive: 35.5 µM [activator, single point]
CC1CCCN(C(=O)Cn2c(=O)oc3cc(S(=O)(=O)N4CCCCC4)ccc32)C1 (stereo not drawn) | inactive: 8.34% [at 46.1 µM] | –
CC(C)c1ccc(CCNC(=O)c2ccc([N+](=O)[O-])cc2)cc1 | – | inconclusive: 1.41 µM [inhibitor, full curve]
Cc1ccc(N2CCN(c3ccc(C)cc3)C2c2cccnc2)cc1 | – | inconclusive: 29.1 µM [inhibitor, partial curve, poor fit]
COc1ccc(CCNC(=O)CCCCCN2C(=O)c3ccccc3C2=O)cc1 | inactive: 26% | –

Compound | activity change, negative = inhibition | Potency
Cc1cccc(N2CCN(C(=O)c3cccc(S(=O)(=O)N4CCOCC4)c3)CC2)c1C | – | inconclusive: 15.8 µM [inhibitor, single point]
CC(=O)c1ccc(N/N=C2/CCCNC2=O)cc1 | – | inconclusive: 11.2 µM [activator, partial curve, poor fit]
CCC(CC)C(=O)Oc1c(C(=O)N(C)C)cccc1-c1ccccc1 | – | inconclusive: 11.2 µM [inhibitor, partial curve, poor fit]
CC/C(=N\NC(=O)CSCc1ccccc1Br)c1ccc2c(c1)OCCO2 | – | inconclusive: 25.9 µM [inhibitor, partial curve]
Clc1ccc(Nc2nc(-c3cccnc3)cs2)cc1 | – | inconclusive: 0.562 µM [activator, single point]
O=C(CSc1nc2c(oc3ccccc32)c(=O)n1CC1CCCO1)NCc1ccc(F)cc1 (stereo not drawn) | – | inconclusive: 6.31 µM [inhibitor, single point]
CC(NC(=O)CN1CCN(S(=O)(=O)c2ccc(Br)cc2)CC1)c1ccccc1 (stereo not drawn) | – | inconclusive: 8.91 µM [activator, partial curve, poor fit]
O=C(C=Cc1ccccn1)c1ccccc1O | inactive: -23.4% [at 46.1 µM] | –
CC(C)Oc1ccccc1OCCCOc1cccc2cccnc12 | – | inconclusive: 22.4 µM [inhibitor, partial curve, poor fit]
Brc1ccccc1-n1ncc2c1ncn1nc(Cc3ccccc3)nc21 | – | inconclusive: 4.47 µM [activator, partial curve, poor fit]
CCN(CC)S(=O)(=O)c1ccc(O)c(C(=O)OCC(=O)Nc2cc(C)c(C)cc2[N+](=O)[O-])c1 | – | inconclusive: 35.5 µM [inhibitor, single point]
C=CCn1c(-c2cccc(S(=O)(=O)N3CCOCC3)c2)n[nH]c1=S | inactive: 0.0145% [at 46.1 µM] | –
c1ccc(CNCCC(Cc2ccccc2)c2ccco2)cc1 (stereo not drawn) | – | inconclusive: 12.6 µM [inhibitor, partial curve, poor fit]
Cc1ccc(S(=O)(=O)/C(C#N)=C/c2c(N3CCC(C(N)=O)CC3)nc3ccccn3c2=O)cc1 | inactive: -24.2% | –
COC(=O)[C@@H]1CC[C@H](C)[C@@H](c2ccc(C)cc2)N1C(=O)c1ccc(C=NOC[C@@H](O)COCc2ccco2)cc1 | – | inconclusive: 7.5 µM [inhibitor, partial curve, poor fit]
CSc1nc(S(=O)(=O)c2ccc(C)cc2)c(Cl)s1 | – | inconclusive: 35.5 µM [inhibitor, partial curve, poor fit]
Cc1ccc(-c2[nH]ncc2/C=N/n2c(COc3ccccc3)nc3ccccc3c2=O)cc1 | – | inconclusive: 35.5 µM [inhibitor, partial curve, poor fit]
O=C(c1cc2c(s1)CCCC2)n1cccn1 | – | inconclusive: 35.5 µM [activator, single point]
O=C(Nc1ccc(-c2cc(C(F)(F)F)nn2-c2ccccc2)cc1)c1cccc(F)c1 | – | inconclusive: 22.4 µM [inhibitor, single point]
S=C(Nc1cccc(Cl)c1)N1CCOCC1 | – | inconclusive: 2.31 µM [activator, full curve, poor fit]
CCOC(=O)c1c(NC(=O)c2cc(CC)on2)sc(C)c1C | – | inconclusive: 2.51 µM [activator, single point]

Compound | activity change, negative = inhibition | Potency
Cc1ccc(C)c(CN2C(=O)c3ccccc3S(=O)c3ccc(C(=O)NCc4ccccc4Cl)cc32)c1 (stereo not drawn) | – | inconclusive: 7.94 µM [inhibitor, partial curve, poor fit]
O=c1onc2cnc3ccccc3n12 | – | inconclusive: 6.51 µM [activator, single point] and inconclusive: 3.55 µM [inhibitor, partial curve, poor fit]
COc1ccc2nc(N3CCOCC3)cc(C)c2c1 | – | inconclusive: 29.1 µM [inhibitor, single point]
COc1ccc2c(c1)CCc1c(C(=O)N3CCCc4ccccc43)noc1-2 | – | inconclusive: 16.4 µM [inhibitor, single point]
Cc1ccnc(N/C=C(\C#N)c2nc(-c3cccc(Br)c3)cs2)c1 | – | inconclusive: 29.1 µM [inhibitor, single point]
CCC(C)(C)n1nnnc1C(c1ccc2ncccc2c1)N1CCN(Cc2ccc3c(c2)OCO3)CC1 (stereo not drawn) | – | inconclusive: 29.1 µM [inhibitor, single point]
Cc1ccc(C(=O)NC(C)c2ccc(F)cc2)cc1 (stereo not drawn) | inactive: -11.9% | –
O=C(c1ccc([N+](=O)[O-])s1)N1CCc2ccccc21 | inactive: 11.8% [at 46.1 µM] | –
CCOC(=O)C1CCCN(CC(O)COc2ccc(OC)cc2C(C)(C)C)C1 (stereo not drawn) | – | inconclusive: 9.2 µM [inhibitor, partial curve, poor fit]
COc1cccc(NC(=O)Cn2cc(C(=O)C3CCCCC3)c3ccccc32)c1 | – | inconclusive: 0.794 µM [inhibitor, full curve, poor fit]
Cc1ccc(/C=C(\C#N)C(=O)Nc2cc(C)ccc2C)cc1 | – | inconclusive: 2.51 µM [activator, partial curve, poor fit]
CCCc1nc2ccc(NC(C)=O)cc2c(=O)n1Cc1ccc(Cl)cc1 | – | inconclusive: 11.2 µM [inhibitor, single point]
N#CC(C#N)=C(N)Nc1cccc(Cl)c1 | – | inconclusive: 1.26 µM [activator, single point]
CC(C)c1ccccc1-n1c(SCC(=O)N2CCc3ccccc3C2)nc2ccccc2c1=O | – | inconclusive: 29.1 µM [inhibitor, single point]
Cc1ccc(-n2c(C)c3c(C)nnc(C)c3c2C)cc1C | – | inconclusive: 22.4 µM [inhibitor, single point]
CCCOc1ccccc1/C=C(\C#N)C(=O)Nc1cccc(C)n1 | inactive: 4.13% | –
COC(=O)c1ccc(N2C(=O)C[C@H](N3CCN(C(=O)c4ccco4)CC3)C2=O)cc1 | inactive: 21.5% | –
CC(C)c1ccc(/C=c2\sc3nc(-c4ccncc4)nn3c2=O)cc1 | – | inconclusive: 35.5 µM [activator, single point]
COc1ccccc1N1CCN(C(=O)C2CCN(S(=O)(=O)c3cnc[nH]3)CC2)CC1 | inactive: 8.13% [at 46.1 µM] | –
CCOC(=O)Cn1nnc2c(sc3nc4c(c(-c5ccc(Cl)cc5)c32)CCC4)c1=O | – | inconclusive: 8.91 µM [inhibitor, partial curve, poor fit]
COc1ccc(CNC(=O)CN(c2ccc(C)cc2)S(=O)(=O)c2c(C)n[nH]c2C)cc1 | – | inconclusive: 3.55 µM [inhibitor, partial curve, poor fit]
